Data source: PubChem BioAssay AID1224830 (NIAID, 2016)

Purpose: 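Genes whose knock-down alters the TNF-alpha reporter response to LPS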 (primary screen)
Cell system: human THP-1 monocytic leukaemia cells, TNF dual-luciferase reporter clone, PMA-differentiated to macrophage-like cells
Reagent: siRNA pool against human genes, 50 nM
Timing: LPS for 4 h, given about 3 days after siRNA transfection
Challenge: bacterial LPS (TLR4 ligand), 10 ng/ml
Measured: 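Ratio of firefly to renilla light, scaled to the plate median and expressed as a robust z-score per replicate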
Reading the numbers: TNF reporter robust z-score: higher = stronger TNF reporter response to LPS
Hit rule: 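Each well counts as active if its z-score is over 2.8 or under -1.5; controls are left without a call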
This is an unselected part of about 18,000 reagents. In the full data, about 2,900 (16%) are marked active. 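Calls are made per well; low scores hint the gene aids the LPS response, high scores that it dampens it.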 Entries without a mark were called inactive. Repeated entries: four replicate wells of each siRNA pool. No sequences are given here.

| gene | TNF reporter robust z-score |
| --- | --- |
| FCRL4 (GeneID 83417) | -0.11 |
| FCRL4 (GeneID 83417) | -0.46 |
| FCRL4 (GeneID 83417) | -0.93 |
| FCRL4 (GeneID 83417) | -0.61 |
| GPR15LG (GeneID 387695) | -1.09 |
| GPR15LG (GeneID 387695) | -1.21 |
| GPR15LG (GeneID 387695) | -1.95 (active) |
| GPR15LG (GeneID 387695) | -1.51 (active) |
| DAZL (GeneID 1618) | -0.69 |
| DAZL (GeneID 1618) | 0.86 |
| DAZL (GeneID 1618) | -0.26 |
| SLC41A2 (GeneID 84102) | 0.34 |
| SLC41A2 (GeneID 84102) | 0.6 |
| SLC41A2 (GeneID 84102) | 0.03 |
| SLC41A2 (GeneID 84102) | -0.2 |
| KHNYN (GeneID 23351) | 0.19 |
| KHNYN (GeneID 23351) | -0.43 |
| KHNYN (GeneID 23351) | -0.85 |
| KHNYN (GeneID 23351) | -0.79 |
| DTX4 (GeneID 23220) | 1.89 |
| DTX4 (GeneID 23220) | 1.44 |
| DTX4 (GeneID 23220) | 1.73 |
| DTX4 (GeneID 23220) | 1.27 |
| RBM39 (GeneID 9584) | -1.76 (active) |
| RBM39 (GeneID 9584) | -1.12 |
| RBM39 (GeneID 9584) | -1.45 |
| RBM39 (GeneID 9584) | -1.83 (active) |
| DSEL (GeneID 92126) | 0.13 |
| DSEL (GeneID 92126) | 0.21 |
| DSEL (GeneID 92126) | 0.28 |
| GPI (GeneID 2821) | -0.54 |
| GPI (GeneID 2821) | -0.11 |
| GPI (GeneID 2821) | -0.61 |
| GPI (GeneID 2821) | -0.28 |
| OR8H2 (GeneID 390151) | 0.52 |
| OR8H2 (GeneID 390151) | 1.2 |
| OR8H2 (GeneID 390151) | 1.47 |
| OR8H2 (GeneID 390151) | 2.46 |
| PLXDC2 (GeneID 84898) | 0.22 |
| PLXDC2 (GeneID 84898) | 0.81 |
| PLXDC2 (GeneID 84898) | 0.31 |
| PLXDC2 (GeneID 84898) | -0.3 |
| ZNF449 (GeneID 203523) | 0.81 |
| ZNF449 (GeneID 203523) | 0.56 |
| ZNF449 (GeneID 203523) | 0.37 |
| ZNF449 (GeneID 203523) | -0.02 |
| PDGFC (GeneID 56034) | 0.63 |
| PDGFC (GeneID 56034) | 0.25 |
| PDGFC (GeneID 56034) | -0.08 |
| PDGFC (GeneID 56034) | 0.24 |
| RNMT (GeneID 8731) | 0.12 |
| RNMT (GeneID 8731) | 0.77 |
| RNMT (GeneID 8731) | -0.01 |
| RNMT (GeneID 8731) | 0.83 |
| INHA (GeneID 3623) | 0.86 |
| INHA (GeneID 3623) | -0.49 |
| INHA (GeneID 3623) | -1.5 |
| INHA (GeneID 3623) | -1.19 |
| UGT1A10 (GeneID 54575) | 1.75 |
| UGT1A10 (GeneID 54575) | 1.62 |
| UGT1A10 (GeneID 54575) | 0.2 |
| UGT1A10 (GeneID 54575) | 2 |
| H3C2 (GeneID 8358) | -0.39 |
| H3C2 (GeneID 8358) | 0.88 |
| H3C2 (GeneID 8358) | 1.08 |
| H3C2 (GeneID 8358) | -0.07 |
| ERVW-1 (GeneID 30816) | 1.18 |
| ERVW-1 (GeneID 30816) | 1.96 |
| ERVW-1 (GeneID 30816) | 0.57 |
| ERVW-1 (GeneID 30816) | 1.63 |
| TNFAIP6 (GeneID 7130) | -0.01 |
| TNFAIP6 (GeneID 7130) | -0.46 |
| TNFAIP6 (GeneID 7130) | -0.71 |
| TNFAIP6 (GeneID 7130) | 0.11 |
| CLEC12A (GeneID 160364) | 1.22 |
| CLEC12A (GeneID 160364) | -0.07 |
| CLEC12A (GeneID 160364) | -0.51 |
| CLEC12A (GeneID 160364) | 1.35 |
| B3GALT2 (GeneID 8707) | 0.62 |
| B3GALT2 (GeneID 8707) | -0.12 |
| B3GALT2 (GeneID 8707) | 1.02 |
| B3GALT2 (GeneID 8707) | 0.65 |
| NME9 (GeneID 347736) | 0.1 |
| NME9 (GeneID 347736) | 0.6 |
| NME9 (GeneID 347736) | -0.15 |
| NME9 (GeneID 347736) | 0.22 |
| ZKSCAN5 (GeneID 23660) | -0.89 |
| ZKSCAN5 (GeneID 23660) | -0.05 |
| ZKSCAN5 (GeneID 23660) | -0.96 |
| ZKSCAN5 (GeneID 23660) | -0.52 |
| SLC7A7 (GeneID 9056) | -1.67 (active) |
| SLC7A7 (GeneID 9056) | -1.25 |
| SLC7A7 (GeneID 9056) | -1.43 |
| SLC7A7 (GeneID 9056) | -1.34 |
| COPB1 (GeneID 1315) | -1.76 (active) |
| COPB1 (GeneID 1315) | -1.88 (active) |
| COPB1 (GeneID 1315) | -2.06 (active) |
| COPB1 (GeneID 1315) | -2.04 (active) |
| DGCR6 (GeneID 8214) | -0.36 |
| DGCR6 (GeneID 8214) | -0.52 |
| DGCR6 (GeneID 8214) | 0.22 |
| DGCR6 (GeneID 8214) | 0.56 |
| UNK (GeneID 85451) | 1.97 |
| UNK (GeneID 85451) | 0.02 |
| UNK (GeneID 85451) | 1.36 |
| UNK (GeneID 85451) | 5.11 (active) |
| ARHGEF28 (GeneID 64283) | -1.24 |
| ARHGEF28 (GeneID 64283) | -0.76 |
| ARHGEF28 (GeneID 64283) | -0.92 |
| ARHGEF28 (GeneID 64283) | 0.67 |
| ATP13A1 (GeneID 57130) | 0.18 |
| ATP13A1 (GeneID 57130) | -0.63 |
| ATP13A1 (GeneID 57130) | -0.95 |
| ATP13A1 (GeneID 57130) | -0.17 |
| TRIM58 (GeneID 25893) | 2.98 (active) |
| TRIM58 (GeneID 25893) | 1.49 |
| TRIM58 (GeneID 25893) | 1.58 |
| TRIM58 (GeneID 25893) | 0.31 |
| CFB (GeneID 629) | 0.3 |
| CFB (GeneID 629) | 1.16 |
| CFB (GeneID 629) | -0.82 |
| CFB (GeneID 629) | -1.03 |
| TMEM260 (GeneID 54916) | 1.81 |
| TMEM260 (GeneID 54916) | 3.12 (active) |
| TMEM260 (GeneID 54916) | 0.07 |
| TMEM260 (GeneID 54916) | -0.36 |
| ABRA (GeneID 137735) | -0.68 |
| ABRA (GeneID 137735) | -0.77 |
| ABRA (GeneID 137735) | -0.04 |
| ABRA (GeneID 137735) | -0.23 |
| AP4S1 (GeneID 11154) | 3.16 (active) |
| AP4S1 (GeneID 11154) | -0.33 |
| AP4S1 (GeneID 11154) | 0.12 |
| AP4S1 (GeneID 11154) | -0.3 |
| SPANXA1 (GeneID 30014) | 0.18 |
| SPANXA1 (GeneID 30014) | 1.43 |
| SPANXA1 (GeneID 30014) | 0.13 |
| SPANXA1 (GeneID 30014) | 0.66 |
| FLT3 (GeneID 2322) | -1.05 |
| FLT3 (GeneID 2322) | -0.39 |
| FLT3 (GeneID 2322) | -0.18 |
| FLT3 (GeneID 2322) | -0.99 |

Targets listed so far whose target name begins with G or g:
| gene | TNF reporter robust z-score |
| --- | --- |
| GPR15LG (GeneID 387695) | -1.09 |
| GPR15LG (GeneID 387695) | -1.21 |
| GPR15LG (GeneID 387695) | -1.95 (active) |
| GPR15LG (GeneID 387695) | -1.51 (active) |
| GPI (GeneID 2821) | -0.54 |
| GPI (GeneID 2821) | -0.11 |
| GPI (GeneID 2821) | -0.61 |
| GPI (GeneID 2821) | -0.28 |
